Assay results from paper PMC3398040.
These are yes or no findings as the source states them, for the method shown. Binding seen in cells or lysates may run through a third protein. For some assays here: A result given as binding can be weak or reduced; the word gives no strength. For some assays here: Sequences can lack the tags named with a protein.

What was measured:
[1] = target: T1, GST-tagged full-length Ddi1 (^GSTFL-Ddi1) (yeast) (UniProt P40087); assay: pull-down; GST-Ddi1, GST-Ddi1ΔUbL or GST-Ddi1ΔUbA on GSH beads incubated with HIS-Rpn1 bacterial lysate together with yeast extract with GFP-Ufo1 or GFP-Ufo1Δuims (Figures 5E, 5F, both present); only the target purified
T1 sequence: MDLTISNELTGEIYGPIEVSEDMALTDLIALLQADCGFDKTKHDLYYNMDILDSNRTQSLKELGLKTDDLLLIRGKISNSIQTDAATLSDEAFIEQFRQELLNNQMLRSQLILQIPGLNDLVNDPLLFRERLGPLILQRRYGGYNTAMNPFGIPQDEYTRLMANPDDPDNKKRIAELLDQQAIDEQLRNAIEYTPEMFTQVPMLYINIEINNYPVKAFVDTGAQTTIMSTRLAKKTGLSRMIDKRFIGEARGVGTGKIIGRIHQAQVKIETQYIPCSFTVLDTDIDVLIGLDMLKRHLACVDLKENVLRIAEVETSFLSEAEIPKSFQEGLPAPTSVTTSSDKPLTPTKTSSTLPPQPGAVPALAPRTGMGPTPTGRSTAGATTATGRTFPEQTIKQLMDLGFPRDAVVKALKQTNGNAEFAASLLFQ

[2] = target: T1, GST-tagged full-length Ddi1 (^GSTFL-Ddi1) (yeast); assay: pull-down; recombinant GST fusion on GSH beads incubated with yeast extract, 4°C, 1-2 h, extract buffer (50 mM Tris-Cl pH 7.5, 150 mM NaCl, 5 mM EDTA, 0.1% NP40); washed with 2.5% Triton X100; Western blot (Figures 1A, 1B, 3A, 5E and 5F, extract alone); only the target purified
[3] = target: T2, GST-tagged full-length Ufo1 (^GSTFL-Ufo1) (yeast) (UniProt Q04511); assay: as above
T2 sequence: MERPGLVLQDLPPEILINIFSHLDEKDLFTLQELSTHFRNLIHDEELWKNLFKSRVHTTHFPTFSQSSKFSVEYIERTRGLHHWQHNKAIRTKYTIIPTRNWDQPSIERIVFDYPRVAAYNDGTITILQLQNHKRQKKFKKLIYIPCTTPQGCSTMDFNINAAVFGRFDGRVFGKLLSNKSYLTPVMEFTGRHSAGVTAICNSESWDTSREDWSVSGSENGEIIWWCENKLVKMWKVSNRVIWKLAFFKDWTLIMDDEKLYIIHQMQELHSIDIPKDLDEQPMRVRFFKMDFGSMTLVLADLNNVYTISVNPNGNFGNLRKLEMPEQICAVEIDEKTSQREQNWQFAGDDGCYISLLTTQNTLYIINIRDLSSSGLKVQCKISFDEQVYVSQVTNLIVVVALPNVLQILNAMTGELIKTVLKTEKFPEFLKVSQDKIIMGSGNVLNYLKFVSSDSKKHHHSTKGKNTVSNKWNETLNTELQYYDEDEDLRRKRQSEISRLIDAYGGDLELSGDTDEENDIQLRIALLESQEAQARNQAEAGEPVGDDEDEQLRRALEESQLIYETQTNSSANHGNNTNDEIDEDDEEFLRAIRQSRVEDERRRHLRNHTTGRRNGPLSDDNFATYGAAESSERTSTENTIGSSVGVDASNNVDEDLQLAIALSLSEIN

[4] = target: GST-tagged Ufo1 WD40 domain (^GSTUfo1-WD40 domain) (yeast); assay: pull-down; GST-Ufo1 or GST-Ufo1-WD40 on GSH beads incubated with yeast extract (wild type or ddi1Δ) with myc-Cdc53, a GFP-tagged 19S RP subunit and GFP-Ho present (Figures 2A, 2B, S2, S3); only the target purified
[5] = target: GST-tagged Ufo1 WD40 domain (^GSTUfo1-WD40 domain) (yeast); assay: pull-down; as a3 but yeast extract (wild type or ddi1Δ) without GFP-Ho (Figures 2A, 2B); only the target purified
[6] = target: GST-tagged Ufo1 WD40 domain (^GSTUfo1-WD40 domain) (yeast); assay: pull-down; recombinant GST fusion on GSH beads incubated with bacterial lysate holding a HIS-tagged protein; Western blot (Figures 1C, 3C, 3D, 5D, 5E with Rpn1 alone); only the target purified
[7] = target: GST-tagged Ddi1 lacking the UbA domain (^GSTDdi1ΔUbA) (yeast); assay: pull-down; GST-Ddi1, GST-Ddi1ΔUbL or GST-Ddi1ΔUbA on GSH beads incubated with HIS-Rpn1 bacterial lysate together with yeast extract with GFP-Ufo1 or GFP-Ufo1Δuims (Figures 5E, 5F, both present); only the target purified
[8] = target: GST-tagged Ddi1 lacking the UbA domain (^GSTDdi1ΔUbA) (yeast); assay: pull-down; recombinant GST fusion on GSH beads incubated with yeast extract, 4°C, 1-2 h, extract buffer (50 mM Tris-Cl pH 7.5, 150 mM NaCl, 5 mM EDTA, 0.1% NP40); washed with 2.5% Triton X100; Western blot (Figures 1A, 1B, 3A, 5E and 5F, extract alone); only the target purified
[9] = target: GST-tagged Ufo1 WD40 domain (^GSTUfo1-WD40 domain) (yeast); assay: as above

Q: What does the source list for “GFP-tagged Ufo1 truncated for the C-terminal UIMs (^GFPUfo1Δuims) (yeast) (domain or fragment)”?
A: binding [1]: no binding; binding [2]: no binding; binding [3]: no binding

B1: GFP-tagged Ho endonuclease (^GFPHo) (enzyme, UniProt P09932 1-586)
chain: MLSENTTILMANGEIKDIANVTANSYVMCADGSAARVINVTQGYQKIYNIQQKTKHRAFEGEPGRLDPRRRTVYQRLALQCTAGHKLSVRVPTKPLLEKSGRNATKYKVRWRNLQQCQTLDGRIIIIPKNHHKTFPMTVEGEFAAKRFIEEMERSKGEYFNFDIEVRDLDYLDAQLRISSCIRFGPVLAGNGVLSKFLTGRSDLVTPAVKSMAWMLGLWLGDSTTKEPEISVDSLDPKLMESLRENAKIWGLYLTVCDDHVPLRAKHVRLHYGDGPDENRKTRNLRKNNPFWKAVTILKFKRDLDGEKQIPEFMYGEHIEVREAFLAGLIDSDGYVVKKGEGPESYKIAIQTVYSSIMDGIVHISRSLGMSATVTTRSAREEIIEGRKVQCQFTYDCNVAGGTTSQNVLSYCRSGHKTREVPPIIKREPVYFSFTDDFQGESTVYGLTIEGHKNFLLGNKIEVKSCRGCCVGEQLKISQKKNLKHCVACPRKGIKYFYKDWSGKNRVCARCYGRYKFSGHHCINCKYVPEAREVKKAKDKGEKLGITPEGLPVKGPECIKCGGILQFDAVRGPHKSCGNNAGARIC
modifications: ubiquitylated as produced in yeast (sites not given)
Q: How did the binding [4] turn out when B1 was run?
A: binds

B2: endogenous Ddi1 (protein, UniProt P40087 1-428)
chain: MDLTISNELTGEIYGPIEVSEDMALTDLIALLQADCGFDKTKHDLYYNMDILDSNRTQSLKELGLKTDDLLLIRGKISNSIQTDAATLSDEAFIEQFRQELLNNQMLRSQLILQIPGLNDLVNDPLLFRERLGPLILQRRYGGYNTAMNPFGIPQDEYTRLMANPDDPDNKKRIAELLDQQAIDEQLRNAIEYTPEMFTQVPMLYINIEINNYPVKAFVDTGAQTTIMSTRLAKKTGLSRMIDKRFIGEARGVGTGKIIGRIHQAQVKIETQYIPCSFTVLDTDIDVLIGLDMLKRHLACVDLKENVLRIAEVETSFLSEAEIPKSFQEGLPAPTSVTTSSDKPLTPTKTSSTLPPQPGAVPALAPRTGMGPTPTGRSTAGATTATGRTFPEQTIKQLMDLGFPRDAVVKALKQTNGNAEFAASLLFQ
Q: B2 was tested. Which binding [4] did it give?
A: binds

Q: What about the binding [5] of the same molecule?
A: binds

B3: HIS-tagged core of Ddi1 without the UbL and UbA domains (^HISΔΔDdi1) (domain or fragment, UniProt P40087 180-325)
chain: QQAIDEQLRNAIEYTPEMFTQVPMLYINIEINNYPVKAFVDTGAQTTIMSTRLAKKTGLSRMIDKRFIGEARGVGTGKIIGRIHQAQVKIETQYIPCSFTVLDTDIDVLIGLDMLKRHLACVDLKENVLRIAEVETSFLSEAEIPK
Q: B3 was tested. Which binding [6] did it give?
A: binds

B4: GFP-tagged full-length Ufo1 (^GFPFL-Ufo1) (protein, UniProt Q04511 1-668)
chain: MERPGLVLQDLPPEILINIFSHLDEKDLFTLQELSTHFRNLIHDEELWKNLFKSRVHTTHFPTFSQSSKFSVEYIERTRGLHHWQHNKAIRTKYTIIPTRNWDQPSIERIVFDYPRVAAYNDGTITILQLQNHKRQKKFKKLIYIPCTTPQGCSTMDFNINAAVFGRFDGRVFGKLLSNKSYLTPVMEFTGRHSAGVTAICNSESWDTSREDWSVSGSENGEIIWWCENKLVKMWKVSNRVIWKLAFFKDWTLIMDDEKLYIIHQMQELHSIDIPKDLDEQPMRVRFFKMDFGSMTLVLADLNNVYTISVNPNGNFGNLRKLEMPEQICAVEIDEKTSQREQNWQFAGDDGCYISLLTTQNTLYIINIRDLSSSGLKVQCKISFDEQVYVSQVTNLIVVVALPNVLQILNAMTGELIKTVLKTEKFPEFLKVSQDKIIMGSGNVLNYLKFVSSDSKKHHHSTKGKNTVSNKWNETLNTELQYYDEDEDLRRKRQSEISRLIDAYGGDLELSGDTDEENDIQLRIALLESQEAQARNQAEAGEPVGDDEDEQLRRALEESQLIYETQTNSSANHGNNTNDEIDEDDEEFLRAIRQSRVEDERRRHLRNHTTGRRNGPLSDDNFATYGAAESSERTSTENTIGSSVGVDASNNVDEDLQLAIALSLSEIN
modifications: ubiquitylated as produced in yeast (sites not given)
Q: Which results are given for B4?
A: binding [7]: binds weakly; binding [8]: binds; binding [9]: binds weakly

B5: myc-tagged Cdc53 (^mycCdc53) (protein, UniProt Q12018 1-815)
chain: MSETLPRSDDLEATWNFIEPGINQILGNEKNQASTSKRVYKILSPTMYMEVYTAIYNYCVNKSRSSGHFSTDSRTGQSTILVGSEIYEKLKNYLKNYILNFKQSNSETFLQFYVKRWKRFTIGAIFLNHAFDYMNRYWVQKERSDGKRHIFDVNTLCLMTWKEVMFDPSKDVLINELLDQVTLGREGQIIQRSNISTAIKSLVALGIDPQDLKKLNLNVYIQVFEKPFLKKTQEYYTQYTNDYLEKHSVTEYIFEAHEIIKREEKAMTIYWDDHTKKPLSMALNKVLITDHIEKLENEFVVLLDARDIEKITSLYALIRRDFTLIPRMASVFENYVKKTGENEISSLLAMHKHNIMKNENANPKKLALMTAHSLSPKDYIKKLLEVHDIFSKIFNESFPDDIPLAKALDNACGAFININEFALPAGSPKSATSKTSEMLAKYSDILLKKATKPEVASDMSDEDIITIFKYLTDKDAFETHYRRLFAKRLIHGTSTSAEDEENIIQRLQAANSMEYTGKITKMFQDIRLSKILEDDFAVALKNEPDYSKAKYPDLQPFVLAENMWPFSYQEVEFKLPKELVPSHEKLKESYSQKHNGRILKWLWPLCRGELKADIGKPGRMPFNFTVTLFQMAILLLYNDADVLTLENIQEGTSLTIQHIAAAMVPFIKFKLIQQVPPGLDALVKPETQFKLSRPYKALKTNINFASGVKNDILQSLSGGGHDNHGNKLGNKRLTEDERIEKELNTERQIFLEACIVRIMKAKRNLPHTTLVNECIAQSHQRFNAKVSMVKRAIDSLIQKGYLQRGDDGESYAYLA
Q: How did the binding [4] turn out when B5 was run?
A: binds
